This passage reports binding result and Kd results from PMC5503513.

Protein sequences, listed by entry. Tags and fused reporters are not part of them. Residues count along the entry.
UniProt P09651, 1-196: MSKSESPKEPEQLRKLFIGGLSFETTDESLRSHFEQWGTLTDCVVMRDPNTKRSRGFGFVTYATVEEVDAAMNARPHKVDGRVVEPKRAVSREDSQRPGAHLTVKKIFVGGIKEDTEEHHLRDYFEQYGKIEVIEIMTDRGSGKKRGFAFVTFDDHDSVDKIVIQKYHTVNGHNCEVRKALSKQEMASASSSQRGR
UniProt P09651, 2-196 R140A: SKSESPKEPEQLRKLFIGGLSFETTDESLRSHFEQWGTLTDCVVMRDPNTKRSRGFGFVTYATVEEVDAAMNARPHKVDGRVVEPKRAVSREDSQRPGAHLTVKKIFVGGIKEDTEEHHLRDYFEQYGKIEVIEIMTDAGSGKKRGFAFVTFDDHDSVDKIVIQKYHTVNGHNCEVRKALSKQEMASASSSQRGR
UniProt P09651, 2-196: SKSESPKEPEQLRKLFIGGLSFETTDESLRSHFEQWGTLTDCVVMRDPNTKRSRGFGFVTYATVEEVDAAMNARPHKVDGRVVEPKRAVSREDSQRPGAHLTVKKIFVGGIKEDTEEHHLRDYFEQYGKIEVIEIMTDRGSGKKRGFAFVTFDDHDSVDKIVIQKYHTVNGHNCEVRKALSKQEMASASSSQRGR
UniProt P09651, 2-97: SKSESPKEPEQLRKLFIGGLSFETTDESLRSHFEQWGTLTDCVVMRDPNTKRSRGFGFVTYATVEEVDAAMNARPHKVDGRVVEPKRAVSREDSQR
UniProt P09651, 2-97 R55A: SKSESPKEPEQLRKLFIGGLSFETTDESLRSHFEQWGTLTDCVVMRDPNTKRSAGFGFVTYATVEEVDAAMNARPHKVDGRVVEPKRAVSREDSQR
UniProt P09651, 2-97 R92A: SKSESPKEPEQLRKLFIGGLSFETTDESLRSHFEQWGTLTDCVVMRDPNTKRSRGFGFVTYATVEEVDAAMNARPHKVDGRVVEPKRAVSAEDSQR

For data set [1], the target named is UP1 (UniProt P09651). In words: NMR titration. To be noted: broad lines; NMR: 10 mM NaPi pH 6.5, 1 mM DTT (303 K stated for UP1-R140A:ISS-N1-u25g); recombinant protein.
The target of data set [2] is hnRNP A1 UP1 R140A (Homo sapiens) (UniProt P09651). In words: NMR. Particulars: 10 mM sodium phosphate pH 6.5, 1 mM DTT, protein at 0.2 mM or more, purified recombinant protein.
For data set [3], the target named is hnRNP A1 UP1 (Homo sapiens) (UniProt P09651). In words: NMR. Particulars: 10 mM sodium phosphate pH 6.5, 1 mM DTT, protein at 0.2 mM or more, purified recombinant protein.
In data set [4] the target is hnRNP A1 RRM1 (UniProt P09651). As to the kind of experiment: NMR titration. Particulars: fast exchange; NMR: 10 mM NaPi pH 6.5, 1 mM DTT (303 K stated for UP1-R140A:ISS-N1-u25g); recombinant protein; residues 2-97.
The target in data set [5] is hnRNP A1 RRM1 (UniProt P09651). As to the kind of experiment: ITC. Particulars: ITC: 10 mM NaPi pH 6.5, 10 mM 2-mercaptoethanol, 30 C, protein titrated into RNA; recombinant protein; residues 2-97.
The target in data set [6] is hnRNP A1 RRM1 R55A (UniProt P09651). As to the kind of experiment: ITC. Particulars: ITC: 10 mM NaPi pH 6.5, 10 mM 2-mercaptoethanol, 30 C, protein titrated into RNA; recombinant protein; residues 2-97.
For data set [7], the target named is hnRNP A1 RRM1 R92A (UniProt P09651). As to the kind of experiment: ITC. To be noted: ITC: 10 mM NaPi pH 6.5, 10 mM 2-mercaptoethanol, 30 C, protein titrated into RNA; recombinant protein; residues 2-97.

For some of these results: The comparison behind a weaker result is the experiment's own reference, which may not be listed here. For some of these results: For at least one entry, the source does not settle the construct or the ends of the probe. For some of these results: At least one verdict was read from the data and is not stated in words by the source.

As for GGACCAGCAUUAUGAAAGGGA [ISS-N1-u25g], the binding result in data set [1], in data set [2] (variant of ISS-N1) and in data set [3] (variant of ISS-N1) was “binds” in each case.
With GGACCAGCAUUAUGAAAGUGA [ISS-N1], the binding result in data set [2] and in data set [3] was “binds” in each case.
For GGACCAGGAUUAUGAAAGUGC [ISS-N1-c14g], the binding result in data set [1] is on record as “binds”.
The Kd is the constant that tells how readily two partners part at equilibrium. With UCAGUU, the binding result in data set [4] is listed as “binds more weakly”. For the same sequence, the Kd in data set [5] is over 10 µM.
Consider UUAGGUC, for which the equilibrium dissociation constant (Kd) in data set [6] is over 10 µM.
UUAGUU: in data set [7], the Kd was over 10 µM.
